PubChem BioAssay AID504784 | Drosophila RNAi Screening Center | 2011
In all, the deposit lists about 17,000 reagents; this is an unselected part of those that have a named target and a result. 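Each column is one replicate's B-score; the combined score over replicates was not deposited, so single values may mislead.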 Names joined by + are all predicted targets of the reagent. Not all columns of the deposit are shown.

- Screen: 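Fly genes whose silencing alters how much lipid cells keep in droplets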 (primary screen)
- Cell system: Drosophila Kc167 embryonic cells
- Reagents: long dsRNA against Drosophila genes, about 250 ng dsRNA per well
- Timing: 4 days
- Conditions: cells fed 400 µM oleic acid bound to BSA
- Detection: 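Cells imaged and segmented; ratio of lipid droplet area to nuclear area, log-transformed, then normalised as a B-score over the screen; higher means more stored lipid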
- Reading the numbers: droplet/nuclear area B-score: higher = more stored lipid (overstorage)

What did the screen give for Osi3 (GeneID 40757) [DRSC12175]?
droplet/nuclear area B-score, replicate 1: -0.766

What did the screen give for CG33286 (GeneID 2768984) [DRSC11691]?
droplet/nuclear area B-score, replicate 1: -0.264

What is on record for polo (GeneID 40232) [DRSC11384]?
droplet/nuclear area B-score, replicate 1: 1.42

Which result is listed for polo (GeneID 40232) [DRSC22359]?
droplet/nuclear area B-score, replicate 1: 4.05

With Doc3 (GeneID 39036) [DRSC10480], what was measured?
droplet/nuclear area B-score, replicate 1: 0.935

For Pex5 (GeneID 31141) [DRSC18552], what does the deposit list?
droplet/nuclear area B-score, replicate 1: 0.664

With CG14086 (GeneID 40100) [DRSC10090], what does the deposit list?
droplet/nuclear area B-score, replicate 1: 0.816

How did the screen score CG14442 (GeneID 31609) [DRSC17935]?
droplet/nuclear area B-score, replicate 1: 4.13

For rempA (GeneID 33230) [DRSC00327], what was measured?
droplet/nuclear area B-score, replicate 1: -0.496

What is on record for CG42726 + CG42727 [DRSC14485]?
droplet/nuclear area B-score, replicate 1: -0.0293

With CG10591 (GeneID 38634) [DRSC09748], what was measured?
droplet/nuclear area B-score, replicate 1: -0.662

What is on record for CG30458 (GeneID 246624) [DRSC06660]?
droplet/nuclear area B-score, replicate 1: -0.957

Which result is listed for PolD1 (GeneID 39746) [DRSC11138]?
droplet/nuclear area B-score, replicate 1: 1.52

What is on record for Mur11Da (GeneID 318139) [DRSC18960]?
droplet/nuclear area B-score, replicate 1: 0.111

For colt (GeneID 33470) [DRSC00808], what was measured?
droplet/nuclear area B-score, replicate 1: 1.24

What did the screen give for CG14658 (GeneID 40603) [DRSC12244]?
droplet/nuclear area B-score, replicate 1: 0.94

With CG12316 (GeneID 39650) [DRSC09879], how do the results read?
droplet/nuclear area B-score, replicate 1: -0.132

What did the screen give for Tollo (GeneID 44497) [DRSC11305]?
droplet/nuclear area B-score, replicate 1: -1.83

What did the screen give for Rab9 (GeneID 35221) [DRSC03281]?
droplet/nuclear area B-score, replicate 1: 0.274

How did the screen score Prestin (GeneID 39996) [DRSC10507]?
droplet/nuclear area B-score, replicate 1: -1.08

With CG15601 (GeneID 32509) [DRSC19670], how do the results read?
droplet/nuclear area B-score, replicate 1: -0.483

With Zip48C (GeneID 36273) [DRSC06314], how do the results read?
droplet/nuclear area B-score, replicate 1: -1.66

With CG44251 (GeneID 36429) [DRSC06856], how do the results read?
droplet/nuclear area B-score, replicate 1: -0.0315

Which result is listed for Mat89Ba (GeneID 41973) [DRSC14540]?
droplet/nuclear area B-score, replicate 1: 3

For EndoA (GeneID 42265) [DRSC14775], what was measured?
droplet/nuclear area B-score, replicate 1: 0.516

Which result is listed for CG10801 (GeneID 31314) [DRSC17761]?
droplet/nuclear area B-score, replicate 1: -2.12

What is on record for CG15657 (GeneID 37408) [DRSC04248]?
droplet/nuclear area B-score, replicate 1: 1.51

Targets above whose gene name starts with R or r:
rempA (GeneID 33230) [DRSC00327] — droplet/nuclear area B-score, replicate 1: -0.496
Rab9 (GeneID 35221) [DRSC03281] — droplet/nuclear area B-score, replicate 1: 0.274
